Measurements reported in PubChem BioAssay AID504784 (Drosophila RNAi Screening Center, 2011)

- Test: 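Search for regulators of lipid droplet storage in oleate-fed fly cells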 (primary screen)
- Cell system: Drosophila Kc167 embryonic cells
- Reagent: long dsRNA against Drosophila genes, about 250 ng dsRNA per well
- Timing: 4 days
- Conditions: cells fed 400 µM oleic acid bound to BSA
- Detection: 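Microscope images give a droplet-to-nucleus area ratio, taken as log and converted to a screen-wide B-score; higher values mean greater lipid storage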
- Scale: droplet/nuclear area B-score: higher = more stored lipid (overstorage)
The deposit covers about 17,000 reagents; shown is an unselected part of those with a known target gene and a result. 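Each column is one replicate's B-score; the combined score over replicates was not deposited, so single values may mislead.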 The numbers tell different reagents against one gene apart. Reagent sequences are not shown.

Osi6: droplet/nuclear area B-score, replicate 1 = 0.0464; droplet/nuclear area B-score, replicate 2 = -1.13
RabX5: droplet/nuclear area B-score, replicate 1 = -2.15; droplet/nuclear area B-score, replicate 2 = -0.966
Skp2: droplet/nuclear area B-score, replicate 1 = -0.454; droplet/nuclear area B-score, replicate 2 = 2.05; droplet/nuclear area B-score, replicate 3 = 0.9
Roe1: droplet/nuclear area B-score, replicate 1 = 0.0481; droplet/nuclear area B-score, replicate 2 = 0.935
CG9813: droplet/nuclear area B-score, replicate 1 = -0.213; droplet/nuclear area B-score, replicate 2 = -0.544
twf: droplet/nuclear area B-score, replicate 1 = 0.699; droplet/nuclear area B-score, replicate 2 = 6.27
dpr20: droplet/nuclear area B-score, replicate 1 = 2.88; droplet/nuclear area B-score, replicate 2 = -5.78
CG14715: droplet/nuclear area B-score, replicate 2 = -0.839
CG18420: droplet/nuclear area B-score, replicate 1 = 2.63; droplet/nuclear area B-score, replicate 2 = -1.7
CG7653: droplet/nuclear area B-score, replicate 1 = -0.0592; droplet/nuclear area B-score, replicate 2 = -0.778
PH4alphaSG1: droplet/nuclear area B-score, replicate 1 = -0.962; droplet/nuclear area B-score, replicate 2 = -0.643
Bap60: droplet/nuclear area B-score, replicate 1 = 3.96; droplet/nuclear area B-score, replicate 2 = 0.748; droplet/nuclear area B-score, replicate 3 = 1.79
pnt #1: droplet/nuclear area B-score, replicate 1 = 2.04; droplet/nuclear area B-score, replicate 2 = 1.87
pnt #2: droplet/nuclear area B-score, replicate 1 = -3.99; droplet/nuclear area B-score, replicate 2 = -2.15
CG13159: droplet/nuclear area B-score, replicate 1 = -0.0386; droplet/nuclear area B-score, replicate 2 = -1.14; droplet/nuclear area B-score, replicate 3 = -1.29
eIF3d1: droplet/nuclear area B-score, replicate 1 = 0.0575; droplet/nuclear area B-score, replicate 2 = -0.629

2 entries already listed, arranged by “droplet/nuclear area B-score, replicate 1”, lowest first.
CG9813: droplet/nuclear area B-score, replicate 1 = -0.213; droplet/nuclear area B-score, replicate 2 = -0.544
twf: droplet/nuclear area B-score, replicate 1 = 0.699; droplet/nuclear area B-score, replicate 2 = 6.27
